Assay results published in PMC6572760.
No constants are given. Whether binding was seen depends on the method and setting. Binding seen in cells or lysates may run through a third protein. A yes stands for co-enrichment or nearness to the bait. Other partners may have been found. Where a sequence is shown, tags or fusion partners need not be part of it.

Sequences of proteins named here, by UniProt entry; tags and fusion partners are left off.
UniProt P32499: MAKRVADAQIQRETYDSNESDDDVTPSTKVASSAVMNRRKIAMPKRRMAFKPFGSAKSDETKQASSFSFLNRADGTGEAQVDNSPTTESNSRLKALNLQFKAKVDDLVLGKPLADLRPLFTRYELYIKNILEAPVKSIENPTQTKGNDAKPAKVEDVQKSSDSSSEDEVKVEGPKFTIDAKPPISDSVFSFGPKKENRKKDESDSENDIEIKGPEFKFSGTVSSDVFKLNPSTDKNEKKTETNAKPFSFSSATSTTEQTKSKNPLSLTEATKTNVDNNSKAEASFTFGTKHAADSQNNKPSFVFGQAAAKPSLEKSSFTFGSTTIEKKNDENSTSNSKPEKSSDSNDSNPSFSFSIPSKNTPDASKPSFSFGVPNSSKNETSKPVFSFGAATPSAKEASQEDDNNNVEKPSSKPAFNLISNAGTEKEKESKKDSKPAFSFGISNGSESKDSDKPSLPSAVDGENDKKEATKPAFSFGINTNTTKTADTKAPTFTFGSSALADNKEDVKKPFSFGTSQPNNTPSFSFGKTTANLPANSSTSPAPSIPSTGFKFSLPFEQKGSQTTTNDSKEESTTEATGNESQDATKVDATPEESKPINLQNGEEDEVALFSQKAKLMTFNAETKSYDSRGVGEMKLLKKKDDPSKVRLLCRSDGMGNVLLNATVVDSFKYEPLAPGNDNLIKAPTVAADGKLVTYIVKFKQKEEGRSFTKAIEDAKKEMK

Assays:
Test in all cases: proximity labelling; M-track protein-protein proximity assay in living yeast: bait fused to HKMTmyc tri-methylates the H3 moiety of Hog1-protA-H3 on close proximity; cells treated with 1 M sorbitol for 40 min (unstressed cells also tested); me3K9H3 over HA signal by Western blot of urea extracts, compared with a strain expressing only Hog1-protA-H3
[1] = molecular target: Nup2-HKMT (S. cerevisiae) (UniProt P32499)
[2] = molecular target: T1, Orm2-HKMTmyc (S. cerevisiae) (UniProt Q06144)
T1 sequence: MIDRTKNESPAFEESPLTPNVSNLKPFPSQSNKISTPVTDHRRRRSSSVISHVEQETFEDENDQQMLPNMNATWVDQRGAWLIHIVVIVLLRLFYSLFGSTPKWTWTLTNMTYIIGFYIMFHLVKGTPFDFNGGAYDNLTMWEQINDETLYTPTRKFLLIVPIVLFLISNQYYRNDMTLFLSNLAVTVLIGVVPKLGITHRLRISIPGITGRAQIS

[3] = molecular target: T2, Sog2-HKMTmyc (S. cerevisiae) (UniProt Q08817)
T2 sequence: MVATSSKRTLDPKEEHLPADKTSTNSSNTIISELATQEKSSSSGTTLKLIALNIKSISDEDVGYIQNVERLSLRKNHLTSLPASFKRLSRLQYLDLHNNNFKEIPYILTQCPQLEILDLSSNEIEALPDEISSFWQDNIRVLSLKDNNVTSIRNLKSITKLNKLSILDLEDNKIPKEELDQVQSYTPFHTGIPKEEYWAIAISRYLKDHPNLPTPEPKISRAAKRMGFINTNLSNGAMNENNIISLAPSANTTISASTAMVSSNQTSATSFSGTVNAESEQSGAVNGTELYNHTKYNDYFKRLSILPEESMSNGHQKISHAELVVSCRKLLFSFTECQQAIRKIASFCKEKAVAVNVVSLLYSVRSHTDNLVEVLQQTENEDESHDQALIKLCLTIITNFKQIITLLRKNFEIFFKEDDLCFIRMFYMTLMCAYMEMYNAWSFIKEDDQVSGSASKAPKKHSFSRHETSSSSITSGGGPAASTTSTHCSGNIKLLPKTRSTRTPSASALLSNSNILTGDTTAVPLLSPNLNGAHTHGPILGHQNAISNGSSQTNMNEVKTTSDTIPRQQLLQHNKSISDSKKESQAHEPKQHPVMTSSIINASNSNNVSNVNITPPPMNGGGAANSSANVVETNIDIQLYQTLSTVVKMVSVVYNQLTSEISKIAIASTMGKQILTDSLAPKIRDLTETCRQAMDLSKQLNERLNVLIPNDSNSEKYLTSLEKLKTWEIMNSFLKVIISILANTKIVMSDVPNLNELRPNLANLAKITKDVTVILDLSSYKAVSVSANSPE

[4] = molecular target: T3, Ubp13-HKMTmyc (S. cerevisiae) (UniProt P38187)
T3 sequence: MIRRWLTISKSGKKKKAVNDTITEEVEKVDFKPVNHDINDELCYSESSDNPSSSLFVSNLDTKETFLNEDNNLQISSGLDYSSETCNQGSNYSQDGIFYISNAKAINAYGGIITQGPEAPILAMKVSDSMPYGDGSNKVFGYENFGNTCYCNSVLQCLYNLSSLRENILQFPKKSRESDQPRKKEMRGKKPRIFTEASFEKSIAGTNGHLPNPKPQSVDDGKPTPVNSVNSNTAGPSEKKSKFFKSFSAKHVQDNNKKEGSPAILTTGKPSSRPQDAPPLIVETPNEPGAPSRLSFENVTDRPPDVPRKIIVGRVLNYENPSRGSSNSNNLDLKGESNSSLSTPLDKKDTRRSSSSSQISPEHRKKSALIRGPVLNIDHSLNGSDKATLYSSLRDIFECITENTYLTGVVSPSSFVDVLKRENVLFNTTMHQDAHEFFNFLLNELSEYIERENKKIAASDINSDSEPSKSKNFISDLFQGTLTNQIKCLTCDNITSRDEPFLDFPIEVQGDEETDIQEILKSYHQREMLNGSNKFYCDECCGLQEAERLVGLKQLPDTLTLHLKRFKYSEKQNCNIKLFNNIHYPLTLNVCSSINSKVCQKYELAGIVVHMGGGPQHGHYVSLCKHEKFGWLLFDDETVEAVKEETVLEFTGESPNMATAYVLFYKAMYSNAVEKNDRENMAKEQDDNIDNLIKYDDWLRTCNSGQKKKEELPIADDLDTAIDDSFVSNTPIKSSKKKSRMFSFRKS

Measured: binding

B1: Hog1-TEV-ProteinA-Histone3-HA (enzyme, UniProt P32485 1-435)
chain: MTTNEEFIRTQIFGTVFEITNRYNDLNPVGMGAFGLVCSATDTLTSQPVAIKKIMKPFSTAVLAKRTYRELKLLKHLRHENLICLQDIFLSPLEDIYFVTELQGTDLHRLLQTRPLEKQFVQYFLYQILRGLKYVHSAGVIHRDLKPSNILINENCDLKICDFGLARIQDPQMTGYVSTRYYRAPEIMLTWQKYDVEVDIWSAGCIFAEMIEGKPLFPGKDHVHQFSIITDLLGSPPKDVINTICSENTLKFVTSLPHRDPIPFSERFKTVEPDAVDLLEKMLVFDPKKRITAADALAHPYSAPYHDPTDEPVADAKFDWHFNDADLPVDTWRVMMYSEILDFHKIGGSDGQIDISATFDDQVAAATAAAAQAQAQAQAQVQLNMAAHSHNGAGTTGNDHSDIAGGNKVSDHVAANDTITDYGNQAIQYANEFQQ
binds: all assays above
